Source: patent publication US20130143320A1
No constants are given. Whether binding was seen depends on the method and setting. For some of these results: Binding seen in cells or lysates may run through a third protein. Some binding calls cover weakened binding; strength is not graded here. Where a sequence is shown, tags or fusion partners need not be part of it.

Assays:
[1] = target: T1, full length hemagglutinin-tagged mouse Robo-4 receptor (Robo-4-HA) (mouse) (UniProt Q8C310); test: co-immunoprecipitation with anti-HA antibodies, immunoblot
T1 sequence: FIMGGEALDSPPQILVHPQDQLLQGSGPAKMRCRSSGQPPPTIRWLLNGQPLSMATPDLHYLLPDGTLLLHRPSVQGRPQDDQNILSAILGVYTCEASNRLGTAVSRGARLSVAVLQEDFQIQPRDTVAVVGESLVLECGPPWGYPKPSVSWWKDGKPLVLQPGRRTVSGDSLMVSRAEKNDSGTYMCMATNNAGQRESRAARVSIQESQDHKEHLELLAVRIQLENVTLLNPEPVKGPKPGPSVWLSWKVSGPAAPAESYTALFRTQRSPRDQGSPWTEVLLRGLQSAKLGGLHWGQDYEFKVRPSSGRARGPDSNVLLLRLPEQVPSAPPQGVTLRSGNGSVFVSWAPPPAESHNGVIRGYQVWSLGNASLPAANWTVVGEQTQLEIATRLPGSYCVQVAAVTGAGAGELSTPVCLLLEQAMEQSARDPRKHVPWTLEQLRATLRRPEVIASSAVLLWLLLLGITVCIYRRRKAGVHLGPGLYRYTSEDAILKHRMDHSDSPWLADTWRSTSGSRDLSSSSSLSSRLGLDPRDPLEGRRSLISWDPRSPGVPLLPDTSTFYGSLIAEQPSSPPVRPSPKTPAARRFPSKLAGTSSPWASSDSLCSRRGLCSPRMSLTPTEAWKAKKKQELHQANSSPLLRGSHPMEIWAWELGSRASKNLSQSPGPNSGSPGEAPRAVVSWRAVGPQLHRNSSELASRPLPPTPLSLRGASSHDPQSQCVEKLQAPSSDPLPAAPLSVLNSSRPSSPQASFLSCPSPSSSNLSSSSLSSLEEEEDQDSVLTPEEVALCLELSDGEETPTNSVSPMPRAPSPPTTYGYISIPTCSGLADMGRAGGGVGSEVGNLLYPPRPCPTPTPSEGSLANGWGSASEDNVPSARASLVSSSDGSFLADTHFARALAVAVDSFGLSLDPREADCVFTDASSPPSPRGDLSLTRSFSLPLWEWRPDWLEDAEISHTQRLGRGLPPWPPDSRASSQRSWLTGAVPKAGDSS

[2] = target: T1, full length hemagglutinin-tagged mouse Robo-4 receptor (Robo-4-HA) (mouse); test: co-immunoprecipitation with anti-HA antibodies, immunoblot (FIG. 5 legend)
[3] = target: T1, full length hemagglutinin-tagged mouse Robo-4 receptor (Robo-4-HA) (mouse); test: indirect immunofluorescence of Slit-myc CM on Robo-4-HEK cells (murine anti-myc antibody, then Alexa 594 anti-mouse antibody)
[4] = target: T1, full length hemagglutinin-tagged mouse Robo-4 receptor (Robo-4-HA) (mouse); test: saturation of binding; method not described

Measured: binding

B1: Human Slit2 ligand tagged with the Myc Epitope (ligand, UniProt O94813 31-1529, looked up, not shown: small tags and cut ends)
chain: QCSCSGSTVDCHGLALRSVPRNIPRNTERLDLNGNNITRITKTDFAGLRHLRVLQLMENKISTIERGAFQDLKELERLRLNRNHLQLFPELLFLGTAKLYRLDLSENQIQAIPRKAFRGAVDIKNLQLDYNQISCIEDGAFRALRDLEVLTLNNNNITRLSVASFNHMPKLRTFRLHSNNLYCDCHLAWLSDWLRQRPRVGLYTQCMGPSHLRGHNVAEVQKREFVCSGHQSFMAPSCSVLHCPAACTCSNNIVDCRGKGLTEIPTNLPETITEIRLEQNTIKVIPPGAFSPYKKLRRIDLSNNQISELAPDAFQGLRSLNSLVLYGNKITELPKSLFEGLFSLQLLLLNANKINCLRVDAFQDLHNLNLLSLYDNKLQTIAKGTFSPLRAIQTMHLAQNPFICDCHLKWLADYLHTNPIETSGARCTSPRRLANKRIGQIKSKKFRCSAKEQYFIPGTEDYRSKLSGDCFADLACPEKCRCEGTTVDCSNQKLNKIPEHIPQYTAELRLNNNEFTVLEATGIFKKLPQLRKINFSNNKITDIEEGAFEGASGVNEILLTSNRLENVQHKMFKGLESLKTLMLRSNRITCVGNDSFIGLSSVRLLSLYDNQITTVAPGAFDTLHSLSTLNLLANPFNCNCYLAWLGEWLRKKRIVTGNPRCQKPYFLKEIPIQDVAIQDFTCDDGNDDNSCSPLSRCPTECTCLDTVVRCSNKGLKVLPKGIPRDVTELYLDGNQFTLVPKELSNYKHLTLIDLSNNRISTLSNQSFSNMTQLLTLILSYNRLRCIPPRTFDGLKSLRLLSLHGNDISVVPEGAFNDLSALSHLAIGANPLYCDCNMQWLSDWVKSEYKEPGIARCAGPGEMADKLLLTTPSKKFTCQGPVDVNILAKCNPCLSNPCKNDGTCNSDPVDFYRCTCPYGFKGQDCDVPIHACISNPCKHGGTCHLKEGEEDGFWCICADGFEGENCEVNVDDCEDNDCENNSTCVDGINNYTCLCPPEYTGELCEEKLDFCAQDLNPCQHDSKCILTPKGFKCDCTPGYVGEHCDIDFDDCQDNKCKNGAHCTDAVNGYTCICPEGYSGLFCEFSPPMVLPRTSPCDNFDCQNGAQCIVRINEPICQCLPGYQGEKCEKLVSVNFINKESYLQIPSAKVRPQTNITLQIATDEDSGILLYKGDKDHIAVELYRGRVRASYDTGSHPASAIYSVETINDGNFHIVELLALDQSLSLSVDGGNPKIITNLSKQSTLNFDSPLYVGGMPGKSNVASLRQAPGQNGTSFHGCIRNLYINSELQDFQKVPMQTGILPGCEPCHKKVCAHGTCQPSSQAGFTCECQEGWMGPLCDQRTNDPCLGNKCVHGTCLPINAFSYSCKCLEGHGGVLCDEEEDLFNPCQAIKCKHGKCRLSGLGQPYCECSSGYTGDSCDREISCRGERIRDYYQKQQGYAACQTTKKVSRLECRGGCAGGQCCGPLRSKRRKYSFECTDGSSFVDEVEKVVKCGCTRCVS
binds: all assays above
